Source: the supplement of paper PMC12067093, “Discovery and optimisation of a covalent ligand for TRIM25 and its application to targeted protein ubiquitination” (Chemical Science, 2025)
This is one part of the list.

Chains of the proteins cited; added tags and fusions are not shown. Lines headed by an entry give the natural chain unless they say otherwise; changes in a name come on top.
UniProt Q86V21: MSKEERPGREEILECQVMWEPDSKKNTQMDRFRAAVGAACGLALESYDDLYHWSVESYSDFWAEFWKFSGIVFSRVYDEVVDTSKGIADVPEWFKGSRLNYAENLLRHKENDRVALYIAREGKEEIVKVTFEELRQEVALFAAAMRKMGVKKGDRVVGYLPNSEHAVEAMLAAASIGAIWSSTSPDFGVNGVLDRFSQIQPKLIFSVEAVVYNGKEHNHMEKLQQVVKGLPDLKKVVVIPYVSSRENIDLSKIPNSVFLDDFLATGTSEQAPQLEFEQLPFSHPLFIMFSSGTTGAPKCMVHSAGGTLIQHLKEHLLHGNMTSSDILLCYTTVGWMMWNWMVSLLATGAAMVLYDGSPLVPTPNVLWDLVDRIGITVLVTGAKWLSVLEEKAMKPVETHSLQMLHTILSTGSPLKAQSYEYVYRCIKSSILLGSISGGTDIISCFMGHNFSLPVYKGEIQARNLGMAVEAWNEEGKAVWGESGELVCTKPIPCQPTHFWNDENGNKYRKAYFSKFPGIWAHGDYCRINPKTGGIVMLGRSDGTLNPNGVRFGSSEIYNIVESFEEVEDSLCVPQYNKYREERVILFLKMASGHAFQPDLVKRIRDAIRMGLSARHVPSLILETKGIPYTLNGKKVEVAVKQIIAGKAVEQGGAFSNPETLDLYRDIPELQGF
UniProt Q9H3P7: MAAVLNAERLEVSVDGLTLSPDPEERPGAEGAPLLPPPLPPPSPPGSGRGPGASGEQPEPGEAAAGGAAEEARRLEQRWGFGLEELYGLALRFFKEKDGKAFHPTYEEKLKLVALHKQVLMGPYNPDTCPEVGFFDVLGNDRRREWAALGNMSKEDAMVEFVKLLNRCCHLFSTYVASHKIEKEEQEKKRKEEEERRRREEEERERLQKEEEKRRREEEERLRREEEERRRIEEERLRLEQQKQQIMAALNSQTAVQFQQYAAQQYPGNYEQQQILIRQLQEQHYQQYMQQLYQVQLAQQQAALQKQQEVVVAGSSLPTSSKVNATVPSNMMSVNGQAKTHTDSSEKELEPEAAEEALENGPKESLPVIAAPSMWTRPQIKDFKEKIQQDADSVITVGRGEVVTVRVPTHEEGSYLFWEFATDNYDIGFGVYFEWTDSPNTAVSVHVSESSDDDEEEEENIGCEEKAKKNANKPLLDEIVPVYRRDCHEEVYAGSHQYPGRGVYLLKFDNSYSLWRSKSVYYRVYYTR
UniProt P53396: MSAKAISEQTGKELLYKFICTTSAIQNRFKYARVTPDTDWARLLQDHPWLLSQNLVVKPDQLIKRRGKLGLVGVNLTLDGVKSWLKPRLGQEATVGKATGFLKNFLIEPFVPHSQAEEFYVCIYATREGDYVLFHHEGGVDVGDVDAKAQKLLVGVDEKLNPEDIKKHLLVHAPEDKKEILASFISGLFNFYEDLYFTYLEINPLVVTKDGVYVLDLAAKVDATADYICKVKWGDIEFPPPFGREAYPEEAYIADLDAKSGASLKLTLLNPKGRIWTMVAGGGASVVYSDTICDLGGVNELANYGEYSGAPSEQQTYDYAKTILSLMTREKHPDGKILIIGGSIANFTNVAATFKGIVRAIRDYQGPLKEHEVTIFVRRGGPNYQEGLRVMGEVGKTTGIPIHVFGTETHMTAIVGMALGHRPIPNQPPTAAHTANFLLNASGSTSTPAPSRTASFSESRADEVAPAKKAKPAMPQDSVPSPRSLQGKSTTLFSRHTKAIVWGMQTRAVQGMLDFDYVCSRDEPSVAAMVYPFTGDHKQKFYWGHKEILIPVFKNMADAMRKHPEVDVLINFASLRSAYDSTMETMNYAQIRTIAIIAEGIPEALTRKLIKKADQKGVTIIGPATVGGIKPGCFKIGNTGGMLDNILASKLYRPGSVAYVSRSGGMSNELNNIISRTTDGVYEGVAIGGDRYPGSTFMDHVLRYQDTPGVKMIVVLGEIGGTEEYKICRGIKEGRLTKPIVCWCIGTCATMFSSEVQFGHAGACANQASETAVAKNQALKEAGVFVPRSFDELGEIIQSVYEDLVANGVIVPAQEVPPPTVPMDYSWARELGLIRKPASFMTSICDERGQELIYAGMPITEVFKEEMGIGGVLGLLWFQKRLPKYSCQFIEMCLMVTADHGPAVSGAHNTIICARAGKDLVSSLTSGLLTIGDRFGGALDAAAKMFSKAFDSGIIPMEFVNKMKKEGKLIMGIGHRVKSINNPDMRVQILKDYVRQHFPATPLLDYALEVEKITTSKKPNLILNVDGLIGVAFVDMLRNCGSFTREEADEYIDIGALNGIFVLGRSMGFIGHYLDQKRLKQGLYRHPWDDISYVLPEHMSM
UniProt Q99798: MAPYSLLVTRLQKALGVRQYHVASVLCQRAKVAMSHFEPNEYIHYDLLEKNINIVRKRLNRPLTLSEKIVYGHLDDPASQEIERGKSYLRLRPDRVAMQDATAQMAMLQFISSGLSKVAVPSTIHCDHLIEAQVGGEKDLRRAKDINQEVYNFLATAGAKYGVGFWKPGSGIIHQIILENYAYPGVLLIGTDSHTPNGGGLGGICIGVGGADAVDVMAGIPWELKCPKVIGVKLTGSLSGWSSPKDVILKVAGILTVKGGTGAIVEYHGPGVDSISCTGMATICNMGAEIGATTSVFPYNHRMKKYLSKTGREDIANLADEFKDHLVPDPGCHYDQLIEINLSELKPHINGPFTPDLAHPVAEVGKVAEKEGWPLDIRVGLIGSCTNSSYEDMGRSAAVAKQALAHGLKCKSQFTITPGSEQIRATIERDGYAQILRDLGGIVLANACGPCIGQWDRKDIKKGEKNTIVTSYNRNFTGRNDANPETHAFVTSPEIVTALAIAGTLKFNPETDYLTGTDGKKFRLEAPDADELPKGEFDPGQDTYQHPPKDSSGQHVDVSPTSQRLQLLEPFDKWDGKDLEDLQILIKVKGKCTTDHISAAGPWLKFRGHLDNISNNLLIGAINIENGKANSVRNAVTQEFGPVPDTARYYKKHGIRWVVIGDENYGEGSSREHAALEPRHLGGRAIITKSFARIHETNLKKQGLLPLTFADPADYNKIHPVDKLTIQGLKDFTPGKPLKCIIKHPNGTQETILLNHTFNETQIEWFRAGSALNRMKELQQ
UniProt P09110: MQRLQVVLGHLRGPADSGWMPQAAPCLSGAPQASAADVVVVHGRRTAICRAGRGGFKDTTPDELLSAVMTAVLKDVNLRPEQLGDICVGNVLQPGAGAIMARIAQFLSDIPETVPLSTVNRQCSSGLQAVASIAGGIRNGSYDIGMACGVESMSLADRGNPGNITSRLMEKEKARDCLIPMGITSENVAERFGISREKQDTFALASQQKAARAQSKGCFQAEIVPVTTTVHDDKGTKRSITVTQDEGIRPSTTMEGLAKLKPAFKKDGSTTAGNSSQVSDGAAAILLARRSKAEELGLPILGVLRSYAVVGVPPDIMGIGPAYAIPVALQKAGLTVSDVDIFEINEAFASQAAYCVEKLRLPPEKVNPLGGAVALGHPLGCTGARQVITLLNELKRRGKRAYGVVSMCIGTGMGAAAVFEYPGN
UniProt Q8WXI4: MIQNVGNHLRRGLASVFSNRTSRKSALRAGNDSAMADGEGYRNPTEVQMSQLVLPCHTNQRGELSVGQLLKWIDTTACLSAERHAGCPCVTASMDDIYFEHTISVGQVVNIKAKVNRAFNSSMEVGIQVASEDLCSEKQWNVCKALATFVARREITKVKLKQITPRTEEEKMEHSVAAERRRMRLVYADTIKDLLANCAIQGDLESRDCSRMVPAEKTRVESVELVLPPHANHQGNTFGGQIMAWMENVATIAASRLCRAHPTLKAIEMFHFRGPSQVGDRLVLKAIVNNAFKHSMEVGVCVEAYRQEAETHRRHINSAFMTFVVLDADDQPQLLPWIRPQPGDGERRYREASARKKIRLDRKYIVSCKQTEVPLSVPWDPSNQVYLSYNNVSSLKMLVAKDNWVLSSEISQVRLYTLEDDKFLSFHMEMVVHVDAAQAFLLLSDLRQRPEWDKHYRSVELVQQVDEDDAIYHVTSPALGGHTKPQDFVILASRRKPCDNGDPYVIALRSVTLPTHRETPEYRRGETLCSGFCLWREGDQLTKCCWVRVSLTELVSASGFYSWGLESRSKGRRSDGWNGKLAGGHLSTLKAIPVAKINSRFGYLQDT
UniProt P49748: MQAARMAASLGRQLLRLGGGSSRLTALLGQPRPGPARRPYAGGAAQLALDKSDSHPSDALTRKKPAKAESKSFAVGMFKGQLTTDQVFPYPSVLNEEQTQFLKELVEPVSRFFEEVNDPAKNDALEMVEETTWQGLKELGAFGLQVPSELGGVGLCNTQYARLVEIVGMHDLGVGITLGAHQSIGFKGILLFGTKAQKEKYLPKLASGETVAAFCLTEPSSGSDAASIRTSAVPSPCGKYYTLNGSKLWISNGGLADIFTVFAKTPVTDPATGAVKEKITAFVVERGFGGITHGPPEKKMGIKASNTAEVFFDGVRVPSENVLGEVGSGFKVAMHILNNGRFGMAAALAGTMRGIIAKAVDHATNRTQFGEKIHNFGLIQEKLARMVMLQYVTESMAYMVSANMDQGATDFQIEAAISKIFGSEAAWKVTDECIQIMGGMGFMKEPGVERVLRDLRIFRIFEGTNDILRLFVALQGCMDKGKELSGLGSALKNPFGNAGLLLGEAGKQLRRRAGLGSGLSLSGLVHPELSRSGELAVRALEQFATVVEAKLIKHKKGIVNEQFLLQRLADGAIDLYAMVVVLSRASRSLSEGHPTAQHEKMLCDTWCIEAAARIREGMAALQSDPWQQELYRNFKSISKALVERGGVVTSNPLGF
UniProt Q9BWD1: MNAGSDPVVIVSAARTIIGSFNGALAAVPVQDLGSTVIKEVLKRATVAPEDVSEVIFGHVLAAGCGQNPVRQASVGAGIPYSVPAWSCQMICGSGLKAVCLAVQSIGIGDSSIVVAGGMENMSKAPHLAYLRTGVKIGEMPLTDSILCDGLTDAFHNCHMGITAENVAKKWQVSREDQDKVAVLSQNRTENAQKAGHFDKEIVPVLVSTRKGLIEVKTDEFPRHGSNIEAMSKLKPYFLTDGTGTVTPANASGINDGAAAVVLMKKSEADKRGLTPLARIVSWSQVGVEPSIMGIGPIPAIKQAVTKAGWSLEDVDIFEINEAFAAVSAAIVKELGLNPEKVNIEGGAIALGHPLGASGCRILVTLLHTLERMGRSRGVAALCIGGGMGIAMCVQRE
UniProt Q2M2I8: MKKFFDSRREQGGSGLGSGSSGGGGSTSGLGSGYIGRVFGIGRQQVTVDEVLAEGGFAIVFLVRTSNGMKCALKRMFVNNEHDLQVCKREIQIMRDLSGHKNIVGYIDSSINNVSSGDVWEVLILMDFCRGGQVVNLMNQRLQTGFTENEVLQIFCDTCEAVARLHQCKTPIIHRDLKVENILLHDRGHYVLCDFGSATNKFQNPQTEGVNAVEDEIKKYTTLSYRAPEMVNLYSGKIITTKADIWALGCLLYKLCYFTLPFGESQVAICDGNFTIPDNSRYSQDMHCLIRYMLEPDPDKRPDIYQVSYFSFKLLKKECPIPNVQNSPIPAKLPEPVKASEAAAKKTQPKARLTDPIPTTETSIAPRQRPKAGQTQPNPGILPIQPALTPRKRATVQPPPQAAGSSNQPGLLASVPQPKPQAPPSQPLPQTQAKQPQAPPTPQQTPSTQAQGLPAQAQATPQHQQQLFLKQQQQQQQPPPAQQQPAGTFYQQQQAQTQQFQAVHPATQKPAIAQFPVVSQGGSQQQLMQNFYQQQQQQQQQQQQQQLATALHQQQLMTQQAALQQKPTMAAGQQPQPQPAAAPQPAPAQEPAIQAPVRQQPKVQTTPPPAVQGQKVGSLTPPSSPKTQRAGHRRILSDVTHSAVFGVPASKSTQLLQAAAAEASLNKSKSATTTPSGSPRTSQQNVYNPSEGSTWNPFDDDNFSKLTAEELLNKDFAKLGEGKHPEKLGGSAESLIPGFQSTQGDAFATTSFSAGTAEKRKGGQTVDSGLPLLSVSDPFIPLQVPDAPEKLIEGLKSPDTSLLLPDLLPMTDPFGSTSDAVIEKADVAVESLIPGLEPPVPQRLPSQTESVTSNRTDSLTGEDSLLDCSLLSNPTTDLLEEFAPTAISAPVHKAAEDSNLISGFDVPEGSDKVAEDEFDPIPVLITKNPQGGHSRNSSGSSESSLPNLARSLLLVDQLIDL
UniProt Q8N2K0: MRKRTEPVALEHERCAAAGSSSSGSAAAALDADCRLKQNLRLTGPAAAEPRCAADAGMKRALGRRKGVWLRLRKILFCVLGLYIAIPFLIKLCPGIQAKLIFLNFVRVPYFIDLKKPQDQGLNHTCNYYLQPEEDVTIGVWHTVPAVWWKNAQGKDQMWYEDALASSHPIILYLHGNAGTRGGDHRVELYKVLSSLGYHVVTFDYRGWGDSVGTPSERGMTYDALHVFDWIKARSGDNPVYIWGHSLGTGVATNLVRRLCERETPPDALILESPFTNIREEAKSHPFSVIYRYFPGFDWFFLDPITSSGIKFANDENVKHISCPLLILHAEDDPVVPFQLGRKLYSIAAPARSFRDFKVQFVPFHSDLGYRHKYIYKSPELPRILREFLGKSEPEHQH

Each target was assayed with Cc1cc(ccc1-c1ccccc1)C(=O)N1CCCN(CC1)C(=O)CCl [compound 10] (assay: probe-labelled cysteine peptide fold change vs DMSO (competition) (log2 fold change); higher = less target engagement (more negative = stronger competition)). Conditions: 50 µM; THP-1; incubation time: 4 h.
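Note: competitive profiling in live THP-1 cells: cysteine peptides tagged with an iodoacetamide desthiobiotin (IA-DTB) probe, intensity after compound treatment relative to DMSO-treated cells.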

Target	probe-labelled cysteine peptide fold change
ABCE1_P61221_201_TQAIVCQQLDLTHLK (UniProt P61221)	-0.159
ACACA_Q13085_1470_TDCNHIFLNFVPTVIMDPSK (UniProt Q13085)	0.108
AACS_Q86V21_525_FPGIWAHGDYCR (UniProt Q86V21)	-0.0193
ACBD3_Q9H3P7_169_CCHLFSTYVASHK (UniProt Q9H3P7)	0.131
ACLY_P53396_519_AVQGMLDFDYVCSR (UniProt P53396)	0.231
ACO2_Q99798_126_VAVPSTIHCDHLIEAQVGGEK (UniProt Q99798)	-0.0563
ACAA1_P09110_49_RTAICR (UniProt P09110)	0.0647
AARS2_Q5JTZ9_300_HSTYDTDLFSPLLNAIQQGCR (UniProt Q5JTZ9)	-0.0174
ACOT11_Q8WXI4_529_RGETLCSGFCLWR (UniProt Q8WXI4)	-0.233
ACACA_Q13085_1396_NFDLTAIPCANHK (UniProt Q13085)	0.042
ABCF2_Q9UG63_388_TLSFYFPPCGK (UniProt Q9UG63)	0.0851
ABCE1_P61221_65_KCPFGALSIVNLPSNLEK (UniProt P61221)	-0.211
ACACA_Q13085_1009_CVFALR (UniProt Q13085)	0.302
ACAP2_Q15057_53_AFCVANK (UniProt Q15057)	-0.362
ACADVL_P49748_477_LFVALQGCMDK (UniProt P49748)	0.311
ACADVL_P49748_603_MLCDTWCIEAAAR (UniProt P49748)	-0.188
AARS_P49588_901+903_ITCLCQVPQNAANR (UniProt P49588)	0.0151
ACAD9_Q9H845_613_RAYICAHPLDR (UniProt Q9H845)	0.131
ACLY_P53396_1040_NCGSFTREEADEYIDIGALNGIFVLGR (UniProt P53396)	-0.00144

Target	probe-labelled cysteine peptide fold change
ACAT2_Q9BWD1_360_VNIEGGAIALGHPLGASGCR (UniProt Q9BWD1)	0.226
ACO2_Q99798_451_DLGGIVLANACGPCIGQWDRK (UniProt Q99798)	-0.398
ACAT1_P24752_413_QGEYGLASICNGGGGASAMLIQKL (UniProt P24752)	-0.842
AAK1_Q2M2I8_319_KECPIPNVQNSPIPAK (UniProt Q2M2I8)	-0.101
ABCF1_Q8NE71_741_FGLESHAHTIQICK (UniProt Q8NE71)	-0.00531
ACAT2_Q9BWD1_65_RATVAPEDVSEVIFGHVLAAGCGQNPVR (UniProt Q9BWD1)	0.224
AACS_Q86V21_15_EERPGREEILECQVMWEPDSKK (UniProt Q86V21)	-0.344
ABHD10_Q9NUJ1_229_EAEHHCLLHSPIPVNCPIR (UniProt Q9NUJ1)	0.0493
AAK1_Q2M2I8_159_LQTGFTENEVLQIFCDTCEAVAR (UniProt Q2M2I8)	0.0488
ABHD11_Q8NFV4_135_NHGDSPHSPDMSYEIMSQDLQDLLPQLGLVPCVVVGHSMGGK (UniProt Q8NFV4)	-0.135
ABHD12_Q8N2K0_52_CAADAGMK (UniProt Q8N2K0)	-0.693
ACOT2_P49753_300_GGELCLSMASFLK (UniProt P49753)	0.0138
ACO1_P21399_118_INPVCPADLVIDHSIQVDFNR (UniProt P21399)	-0.0146
ABCE1_P61221_38_LCIEVTPQSK (UniProt P61221)	-0.149
ACAD9_Q9H845_507_TVDLGLTGNHGVVHPSLADSANKFEENTYCFGR (UniProt Q9H845)	-0.519
ABCC4_O15439_1226_FAHCTVLTIAHR (UniProt O15439)	-0.13
ACLY_P53396_633_GVTIIGPATVGGIKPGCFK (UniProt P53396)	0.0362
ACO2_Q99798_451_DLGGIVLANACGPCIGQWDR (UniProt Q99798)	0.0722
ABCF3_Q9NUQ8_102_ITENYDCGTK (UniProt Q9NUQ8)	-0.285
